Data on four substances can be found in paper PMC4849471.

Amino acid sequences for entries named in this document (tags omitted).
UniProt P16520: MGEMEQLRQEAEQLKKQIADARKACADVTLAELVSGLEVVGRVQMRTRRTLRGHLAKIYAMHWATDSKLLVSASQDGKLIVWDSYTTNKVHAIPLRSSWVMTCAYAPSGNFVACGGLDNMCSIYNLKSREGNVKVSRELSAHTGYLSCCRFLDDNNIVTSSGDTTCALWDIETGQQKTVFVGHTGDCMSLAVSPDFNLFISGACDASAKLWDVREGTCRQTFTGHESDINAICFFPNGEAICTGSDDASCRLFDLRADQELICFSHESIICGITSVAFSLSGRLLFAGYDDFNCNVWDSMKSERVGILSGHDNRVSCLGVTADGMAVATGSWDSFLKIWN
UniProt P25098: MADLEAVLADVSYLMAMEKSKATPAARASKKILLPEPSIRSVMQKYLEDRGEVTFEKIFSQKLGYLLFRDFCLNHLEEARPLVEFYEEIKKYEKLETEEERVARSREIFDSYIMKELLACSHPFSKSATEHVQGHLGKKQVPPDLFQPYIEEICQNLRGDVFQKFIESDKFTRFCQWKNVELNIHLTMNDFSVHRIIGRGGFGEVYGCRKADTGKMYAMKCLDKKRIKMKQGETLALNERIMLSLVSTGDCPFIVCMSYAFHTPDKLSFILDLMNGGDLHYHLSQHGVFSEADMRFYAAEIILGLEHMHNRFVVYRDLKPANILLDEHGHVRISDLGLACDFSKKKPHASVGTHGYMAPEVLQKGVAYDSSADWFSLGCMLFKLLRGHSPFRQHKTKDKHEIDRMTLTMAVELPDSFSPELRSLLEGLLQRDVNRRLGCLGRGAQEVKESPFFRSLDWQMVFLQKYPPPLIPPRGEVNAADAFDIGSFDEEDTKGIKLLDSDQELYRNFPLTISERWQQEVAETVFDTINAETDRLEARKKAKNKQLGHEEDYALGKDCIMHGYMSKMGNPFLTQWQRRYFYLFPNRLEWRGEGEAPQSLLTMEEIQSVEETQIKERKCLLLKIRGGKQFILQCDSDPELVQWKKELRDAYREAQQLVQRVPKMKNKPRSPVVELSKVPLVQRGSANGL
UniProt Q13619: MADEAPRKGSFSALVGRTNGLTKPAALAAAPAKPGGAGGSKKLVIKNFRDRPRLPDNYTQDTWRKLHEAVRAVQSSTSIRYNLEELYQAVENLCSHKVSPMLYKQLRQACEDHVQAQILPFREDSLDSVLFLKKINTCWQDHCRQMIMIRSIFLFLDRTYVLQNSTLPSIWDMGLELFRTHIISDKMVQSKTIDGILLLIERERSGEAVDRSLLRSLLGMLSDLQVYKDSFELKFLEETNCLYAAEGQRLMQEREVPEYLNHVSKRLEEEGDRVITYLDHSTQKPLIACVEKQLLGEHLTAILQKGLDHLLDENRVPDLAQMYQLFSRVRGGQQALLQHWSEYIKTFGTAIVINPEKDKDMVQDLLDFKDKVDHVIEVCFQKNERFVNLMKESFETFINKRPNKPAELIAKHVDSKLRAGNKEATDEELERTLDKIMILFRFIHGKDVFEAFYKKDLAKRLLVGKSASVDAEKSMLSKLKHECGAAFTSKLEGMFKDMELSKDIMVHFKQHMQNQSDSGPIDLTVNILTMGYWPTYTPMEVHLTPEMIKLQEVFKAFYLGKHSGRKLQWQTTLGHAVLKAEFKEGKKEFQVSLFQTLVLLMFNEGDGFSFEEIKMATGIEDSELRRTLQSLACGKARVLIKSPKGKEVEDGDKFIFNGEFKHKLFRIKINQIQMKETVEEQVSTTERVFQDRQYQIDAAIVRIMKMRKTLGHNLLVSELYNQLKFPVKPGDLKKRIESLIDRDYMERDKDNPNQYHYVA
UniProt Q16531: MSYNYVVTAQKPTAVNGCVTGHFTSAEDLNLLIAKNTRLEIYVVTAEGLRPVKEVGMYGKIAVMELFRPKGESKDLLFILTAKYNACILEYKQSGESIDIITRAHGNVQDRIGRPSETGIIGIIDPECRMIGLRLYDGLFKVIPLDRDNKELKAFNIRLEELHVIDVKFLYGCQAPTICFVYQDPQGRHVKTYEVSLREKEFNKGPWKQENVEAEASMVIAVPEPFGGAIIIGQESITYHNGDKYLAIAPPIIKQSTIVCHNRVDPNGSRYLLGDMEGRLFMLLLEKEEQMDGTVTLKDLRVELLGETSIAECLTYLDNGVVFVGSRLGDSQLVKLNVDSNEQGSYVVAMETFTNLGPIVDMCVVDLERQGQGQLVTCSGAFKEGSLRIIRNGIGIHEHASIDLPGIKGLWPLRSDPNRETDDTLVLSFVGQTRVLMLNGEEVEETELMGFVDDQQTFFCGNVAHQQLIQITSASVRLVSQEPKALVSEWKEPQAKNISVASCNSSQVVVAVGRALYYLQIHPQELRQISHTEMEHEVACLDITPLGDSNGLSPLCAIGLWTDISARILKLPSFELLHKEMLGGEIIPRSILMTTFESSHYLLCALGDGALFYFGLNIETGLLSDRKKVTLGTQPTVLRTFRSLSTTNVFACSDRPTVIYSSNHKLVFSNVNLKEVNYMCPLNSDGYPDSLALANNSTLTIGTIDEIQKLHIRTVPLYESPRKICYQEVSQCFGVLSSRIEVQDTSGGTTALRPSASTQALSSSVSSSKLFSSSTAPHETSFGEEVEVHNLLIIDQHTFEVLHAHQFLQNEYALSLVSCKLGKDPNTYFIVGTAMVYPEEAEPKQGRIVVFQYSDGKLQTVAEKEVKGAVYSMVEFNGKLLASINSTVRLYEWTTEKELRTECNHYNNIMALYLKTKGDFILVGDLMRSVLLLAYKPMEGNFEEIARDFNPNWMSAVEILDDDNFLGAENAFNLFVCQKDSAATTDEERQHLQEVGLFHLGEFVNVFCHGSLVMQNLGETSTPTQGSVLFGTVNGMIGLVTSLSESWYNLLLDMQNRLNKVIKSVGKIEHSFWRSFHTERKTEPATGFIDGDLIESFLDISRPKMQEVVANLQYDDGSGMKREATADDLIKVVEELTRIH

No constants are given. Whether binding was seen depends on the method and setting. In cells and extracts the contact can be indirect. Some results given as binding are weak or reduced against the parent protein; the word gives no strength.

For assay [1], the target named is Flag-tagged Gβ3 (G-protein beta 3 subunit, wild type) (human) (UniProt P16520). As to the kind of experiment: co-IP; HEK293 cells transfected with plasmids for GRK2 and Gβ3 or Gβ3s (Figure 2a).
The target is the same in assay [2]. As to the kind of experiment: co-IP; HEK293 cells co-transfected with MYC-tagged CUL4A and Flag-tagged Gβ3 or Gβ3s (Figure 1e).
Assay [3] has the same target. As to the kind of experiment: co-IP; HEK293 cells transfected with Flag-Gβ3 or Flag-Gβ3s; endogenous CUL4A and DDB1 detected; also after isoproterenol (10 μM) for different lengths of time, which reduced the association (Figures 1d, 1f).

With “GRK2 (G-protein-coupled receptor kinase 2) (from UniProt P25098 1-689) (enzyme)”, the binding result in assay [1] is “binds”. In the case of “MYC-tagged CUL4A (from UniProt Q13619 1-759)”, the binding result in assay [2] is on record as “binds”. With “endogenous CUL4A of HEK293 cells (from UniProt Q13619 1-759)”, the binding result in assay [3] is on record as “binds”. Regarding “endogenous DDB1 of HEK293 cells (from UniProt Q16531 1-1140)”, the binding entry in assay [2] and in assay [3] was “binds” throughout.
